Laboratory results reported in patent publication US20260183350A1, “ANTIBIOTIC-RESISTANT BACTERIA” (priority 2022, published 2026).

Assays:
[1] = system: NDM-1 Klebsiella pneumoniae; assay: Individual metabolite inhibition assay; assay type: cell-based; conditions: at average and high concentrations (Table 1); LB pH 6.5, 16 hours anaerobic
Description: (§1) New Delhi Metallo-β-lactamase 1 (NDM-1) Escherichia coli, NDM-1 Klebsiella pneumoniae, and NDM-1 Enterobacter cloacae were isolated from patients with intestinal CRE colonisation from the Imperial College Healthcare NHS Trust via rectal swab (REC ref. 19/LO/0112). The species were assigned by matrix assisted laser desorption ionization-time of flight (MALDI-TOF) mass spectrometry and later confirmed with 16S rRNA gene sequencing. CRE status was determined using X-pert Carba-R PCR detection (Cepheid, Sunnyvale, CA, USA), (Otter, J. A. et al. Detecting carbapenemase-producing Enterobacterales (CPE): an evaluation of an enhanced CPE infection control and screening programme in acute care. J Antimicrob Chemother 75, 2670-2676 (2020)).
(§2) Each metabolite was tested individually in an inhibition assay against each CRE isolate. Each metabolite was tested at three concentrations: the low, average, and high concentrations that were measured in healthy faeces (from Table 1). LB was supplemented with each metabolite (at the three different concentrations) and compared to a no metabolite control. […] Overnight cultures of each CRE isolate were inoculated at 10^3 CFU/ml. Cultures were incubated anaerobically for 16 hours at 37° C. Growth was measured at OD600 after 16 hours of incubation. […]

[2] = system: NDM-1 Enterobacter cloacae; assay: Individual metabolite inhibition assay; assay type: cell-based; conditions: at average and high concentrations (Table 1); LB pH 6.5, 16 hours anaerobic
Description: as §1, §2

SMILES: CC(C)CC(=O)O [isovalerate]
- K. pneumoniae growth (OD600) with individual metabolite [1]: inhibited
- E. cloacae growth (OD600) with individual metabolite [2]: inhibited
